In assay [1] the target is GFP-RIF1-L (GFP-tagged full-length RIF1-Long, RAP1 interacting factor 1) (human) (UniProt Q5UIP0). In words: proximity ligation; Duolink PLA with GFP and MDC1 antibodies in RIF1^−/− U-2 OS cells expressing GFP, GFP-RIF1-L or GFP-RIF1-S; mock irradiated or 10 Gy IR and 2 h recovery; pre-extracted 8 min with CSK buffer (100 mM NaCl, 0.5% Triton X-100) before fixation.
In assay [2] the target is GFP-RIF1-S (GFP-tagged full-length RIF1-Short, RAP1 interacting factor 1) (human) (UniProt Q5UIP0). Described as above.

Chains of the proteins cited; added tags and fusions are not shown. Lines headed by an entry give the natural chain unless they say otherwise; changes in a name come on top.
UniProt Q5UIP0: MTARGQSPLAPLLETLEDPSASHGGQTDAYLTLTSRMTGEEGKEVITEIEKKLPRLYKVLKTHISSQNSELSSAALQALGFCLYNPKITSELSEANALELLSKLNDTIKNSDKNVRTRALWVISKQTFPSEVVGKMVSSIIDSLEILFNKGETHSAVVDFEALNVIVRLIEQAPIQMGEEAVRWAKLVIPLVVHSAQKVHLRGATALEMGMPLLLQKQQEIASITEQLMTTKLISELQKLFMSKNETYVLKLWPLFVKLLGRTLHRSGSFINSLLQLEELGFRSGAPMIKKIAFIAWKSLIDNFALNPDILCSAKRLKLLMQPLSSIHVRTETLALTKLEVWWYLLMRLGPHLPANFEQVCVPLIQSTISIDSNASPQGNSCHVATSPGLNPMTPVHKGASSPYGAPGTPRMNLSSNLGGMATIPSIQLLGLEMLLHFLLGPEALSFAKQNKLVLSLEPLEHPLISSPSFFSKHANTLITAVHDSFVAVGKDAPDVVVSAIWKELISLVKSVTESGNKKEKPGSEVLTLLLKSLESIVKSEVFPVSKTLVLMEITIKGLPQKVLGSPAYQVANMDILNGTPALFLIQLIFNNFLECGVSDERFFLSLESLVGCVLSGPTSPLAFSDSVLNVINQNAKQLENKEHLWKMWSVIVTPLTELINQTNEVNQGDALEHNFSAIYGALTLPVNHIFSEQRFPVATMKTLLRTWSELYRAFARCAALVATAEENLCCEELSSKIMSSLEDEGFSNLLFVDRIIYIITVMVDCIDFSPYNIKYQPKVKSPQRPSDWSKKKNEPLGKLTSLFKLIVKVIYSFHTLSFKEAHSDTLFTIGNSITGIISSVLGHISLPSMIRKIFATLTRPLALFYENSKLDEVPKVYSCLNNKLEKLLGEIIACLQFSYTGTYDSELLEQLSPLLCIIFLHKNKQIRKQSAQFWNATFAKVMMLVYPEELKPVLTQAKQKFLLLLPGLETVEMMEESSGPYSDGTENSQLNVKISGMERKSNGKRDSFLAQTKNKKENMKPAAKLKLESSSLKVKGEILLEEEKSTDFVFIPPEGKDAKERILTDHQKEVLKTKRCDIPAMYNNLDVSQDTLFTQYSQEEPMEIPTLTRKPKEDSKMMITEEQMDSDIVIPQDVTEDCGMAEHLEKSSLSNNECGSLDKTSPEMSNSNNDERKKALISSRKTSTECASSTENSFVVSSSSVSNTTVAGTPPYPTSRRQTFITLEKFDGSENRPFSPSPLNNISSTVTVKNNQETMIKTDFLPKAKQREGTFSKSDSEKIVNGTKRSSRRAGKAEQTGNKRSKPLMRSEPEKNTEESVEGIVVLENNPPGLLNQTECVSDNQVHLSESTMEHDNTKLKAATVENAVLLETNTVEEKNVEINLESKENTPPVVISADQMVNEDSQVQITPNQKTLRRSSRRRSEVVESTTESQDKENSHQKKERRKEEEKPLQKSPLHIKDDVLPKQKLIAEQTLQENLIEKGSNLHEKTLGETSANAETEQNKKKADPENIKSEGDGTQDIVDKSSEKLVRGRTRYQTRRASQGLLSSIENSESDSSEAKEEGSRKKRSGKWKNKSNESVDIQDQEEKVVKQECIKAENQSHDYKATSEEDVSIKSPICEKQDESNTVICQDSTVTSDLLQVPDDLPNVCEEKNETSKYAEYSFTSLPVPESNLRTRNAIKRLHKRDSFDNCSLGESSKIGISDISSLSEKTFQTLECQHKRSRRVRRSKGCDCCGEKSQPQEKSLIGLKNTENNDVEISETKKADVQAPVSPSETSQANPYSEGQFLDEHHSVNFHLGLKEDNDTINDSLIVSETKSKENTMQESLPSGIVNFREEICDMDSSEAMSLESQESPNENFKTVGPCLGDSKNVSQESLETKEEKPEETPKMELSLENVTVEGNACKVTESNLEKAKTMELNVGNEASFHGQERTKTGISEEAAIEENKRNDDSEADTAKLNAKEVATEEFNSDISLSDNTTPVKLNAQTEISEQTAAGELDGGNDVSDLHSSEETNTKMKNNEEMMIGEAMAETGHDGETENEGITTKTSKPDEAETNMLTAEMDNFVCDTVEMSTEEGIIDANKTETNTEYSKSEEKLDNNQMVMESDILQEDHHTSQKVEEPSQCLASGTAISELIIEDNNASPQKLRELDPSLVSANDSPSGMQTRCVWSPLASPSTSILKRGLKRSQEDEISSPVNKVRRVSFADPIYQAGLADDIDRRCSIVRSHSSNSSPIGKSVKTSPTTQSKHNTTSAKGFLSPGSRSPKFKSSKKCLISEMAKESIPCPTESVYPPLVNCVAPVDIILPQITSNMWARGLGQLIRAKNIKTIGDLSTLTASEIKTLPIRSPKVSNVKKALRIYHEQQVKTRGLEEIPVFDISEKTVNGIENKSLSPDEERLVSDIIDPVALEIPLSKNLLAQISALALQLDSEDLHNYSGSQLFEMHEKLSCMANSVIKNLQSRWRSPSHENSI
UniProt Q14676: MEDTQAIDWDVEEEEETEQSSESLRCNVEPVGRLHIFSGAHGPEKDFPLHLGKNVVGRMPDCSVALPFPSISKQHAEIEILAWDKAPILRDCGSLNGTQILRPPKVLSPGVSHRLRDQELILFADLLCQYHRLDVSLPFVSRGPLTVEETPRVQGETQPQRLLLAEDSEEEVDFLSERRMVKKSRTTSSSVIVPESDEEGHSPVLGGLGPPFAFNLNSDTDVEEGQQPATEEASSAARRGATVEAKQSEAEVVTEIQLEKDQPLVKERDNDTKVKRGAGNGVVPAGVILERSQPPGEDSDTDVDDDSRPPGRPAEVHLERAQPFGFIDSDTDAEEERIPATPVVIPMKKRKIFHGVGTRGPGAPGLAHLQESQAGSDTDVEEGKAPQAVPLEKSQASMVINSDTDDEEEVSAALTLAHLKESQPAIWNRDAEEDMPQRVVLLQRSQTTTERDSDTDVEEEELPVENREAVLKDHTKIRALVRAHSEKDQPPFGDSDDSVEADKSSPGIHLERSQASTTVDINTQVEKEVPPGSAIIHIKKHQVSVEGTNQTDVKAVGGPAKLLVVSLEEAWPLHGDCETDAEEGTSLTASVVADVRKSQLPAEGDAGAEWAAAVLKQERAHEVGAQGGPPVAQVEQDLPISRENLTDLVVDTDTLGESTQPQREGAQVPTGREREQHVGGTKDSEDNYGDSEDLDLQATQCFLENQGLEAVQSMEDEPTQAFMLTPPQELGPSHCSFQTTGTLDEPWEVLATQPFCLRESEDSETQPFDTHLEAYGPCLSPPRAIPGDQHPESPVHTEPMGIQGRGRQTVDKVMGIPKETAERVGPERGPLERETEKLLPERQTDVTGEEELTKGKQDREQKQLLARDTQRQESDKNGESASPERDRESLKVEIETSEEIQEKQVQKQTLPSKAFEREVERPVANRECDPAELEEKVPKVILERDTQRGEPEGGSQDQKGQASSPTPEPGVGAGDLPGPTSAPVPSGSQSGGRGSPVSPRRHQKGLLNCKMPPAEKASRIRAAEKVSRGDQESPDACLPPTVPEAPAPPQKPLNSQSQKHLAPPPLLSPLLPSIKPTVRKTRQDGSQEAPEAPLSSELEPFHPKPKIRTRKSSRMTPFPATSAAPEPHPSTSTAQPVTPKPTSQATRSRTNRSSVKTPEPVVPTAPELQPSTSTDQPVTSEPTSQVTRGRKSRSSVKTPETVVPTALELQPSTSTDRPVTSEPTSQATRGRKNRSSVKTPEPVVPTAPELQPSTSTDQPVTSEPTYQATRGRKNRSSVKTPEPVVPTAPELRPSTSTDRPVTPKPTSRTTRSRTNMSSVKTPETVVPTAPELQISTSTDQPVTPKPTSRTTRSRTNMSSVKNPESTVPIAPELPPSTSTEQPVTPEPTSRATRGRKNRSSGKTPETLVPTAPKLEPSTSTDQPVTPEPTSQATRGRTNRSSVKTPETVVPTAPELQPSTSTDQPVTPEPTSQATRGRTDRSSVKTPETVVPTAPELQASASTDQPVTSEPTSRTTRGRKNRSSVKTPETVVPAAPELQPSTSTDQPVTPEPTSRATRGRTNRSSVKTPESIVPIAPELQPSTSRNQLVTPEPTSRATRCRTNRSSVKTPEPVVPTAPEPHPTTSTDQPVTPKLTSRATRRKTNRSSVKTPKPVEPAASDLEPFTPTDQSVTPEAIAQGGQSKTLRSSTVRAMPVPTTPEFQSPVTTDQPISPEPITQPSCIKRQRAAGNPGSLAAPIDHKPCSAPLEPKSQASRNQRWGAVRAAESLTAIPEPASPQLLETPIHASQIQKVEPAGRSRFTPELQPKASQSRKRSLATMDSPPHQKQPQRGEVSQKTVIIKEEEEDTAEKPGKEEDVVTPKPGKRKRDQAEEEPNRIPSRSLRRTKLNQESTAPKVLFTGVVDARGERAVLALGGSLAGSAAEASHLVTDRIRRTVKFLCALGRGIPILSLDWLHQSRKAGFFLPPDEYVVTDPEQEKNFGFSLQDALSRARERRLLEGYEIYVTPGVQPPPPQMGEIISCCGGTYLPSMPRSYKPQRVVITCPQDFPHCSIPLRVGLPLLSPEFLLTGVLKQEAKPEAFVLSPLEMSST

These are yes or no findings as the source states them, for the method shown. In cells and extracts the contact can be indirect. Some binding calls cover weakened binding; strength is not graded here.

As for “mediator of DNA damage checkpoint 1 (MDC1) (from UniProt Q14676 1-2089)”, the binding entry in assay [1] and in assay [2] was “binds” throughout.

Source of the values: article PMC12702018.
